Measured values: paper PMC12197088

By UniProt entry, the sequences of proteins in these tests, tags left out. Residues count along the entry.
UniProt P11717, 41-2491: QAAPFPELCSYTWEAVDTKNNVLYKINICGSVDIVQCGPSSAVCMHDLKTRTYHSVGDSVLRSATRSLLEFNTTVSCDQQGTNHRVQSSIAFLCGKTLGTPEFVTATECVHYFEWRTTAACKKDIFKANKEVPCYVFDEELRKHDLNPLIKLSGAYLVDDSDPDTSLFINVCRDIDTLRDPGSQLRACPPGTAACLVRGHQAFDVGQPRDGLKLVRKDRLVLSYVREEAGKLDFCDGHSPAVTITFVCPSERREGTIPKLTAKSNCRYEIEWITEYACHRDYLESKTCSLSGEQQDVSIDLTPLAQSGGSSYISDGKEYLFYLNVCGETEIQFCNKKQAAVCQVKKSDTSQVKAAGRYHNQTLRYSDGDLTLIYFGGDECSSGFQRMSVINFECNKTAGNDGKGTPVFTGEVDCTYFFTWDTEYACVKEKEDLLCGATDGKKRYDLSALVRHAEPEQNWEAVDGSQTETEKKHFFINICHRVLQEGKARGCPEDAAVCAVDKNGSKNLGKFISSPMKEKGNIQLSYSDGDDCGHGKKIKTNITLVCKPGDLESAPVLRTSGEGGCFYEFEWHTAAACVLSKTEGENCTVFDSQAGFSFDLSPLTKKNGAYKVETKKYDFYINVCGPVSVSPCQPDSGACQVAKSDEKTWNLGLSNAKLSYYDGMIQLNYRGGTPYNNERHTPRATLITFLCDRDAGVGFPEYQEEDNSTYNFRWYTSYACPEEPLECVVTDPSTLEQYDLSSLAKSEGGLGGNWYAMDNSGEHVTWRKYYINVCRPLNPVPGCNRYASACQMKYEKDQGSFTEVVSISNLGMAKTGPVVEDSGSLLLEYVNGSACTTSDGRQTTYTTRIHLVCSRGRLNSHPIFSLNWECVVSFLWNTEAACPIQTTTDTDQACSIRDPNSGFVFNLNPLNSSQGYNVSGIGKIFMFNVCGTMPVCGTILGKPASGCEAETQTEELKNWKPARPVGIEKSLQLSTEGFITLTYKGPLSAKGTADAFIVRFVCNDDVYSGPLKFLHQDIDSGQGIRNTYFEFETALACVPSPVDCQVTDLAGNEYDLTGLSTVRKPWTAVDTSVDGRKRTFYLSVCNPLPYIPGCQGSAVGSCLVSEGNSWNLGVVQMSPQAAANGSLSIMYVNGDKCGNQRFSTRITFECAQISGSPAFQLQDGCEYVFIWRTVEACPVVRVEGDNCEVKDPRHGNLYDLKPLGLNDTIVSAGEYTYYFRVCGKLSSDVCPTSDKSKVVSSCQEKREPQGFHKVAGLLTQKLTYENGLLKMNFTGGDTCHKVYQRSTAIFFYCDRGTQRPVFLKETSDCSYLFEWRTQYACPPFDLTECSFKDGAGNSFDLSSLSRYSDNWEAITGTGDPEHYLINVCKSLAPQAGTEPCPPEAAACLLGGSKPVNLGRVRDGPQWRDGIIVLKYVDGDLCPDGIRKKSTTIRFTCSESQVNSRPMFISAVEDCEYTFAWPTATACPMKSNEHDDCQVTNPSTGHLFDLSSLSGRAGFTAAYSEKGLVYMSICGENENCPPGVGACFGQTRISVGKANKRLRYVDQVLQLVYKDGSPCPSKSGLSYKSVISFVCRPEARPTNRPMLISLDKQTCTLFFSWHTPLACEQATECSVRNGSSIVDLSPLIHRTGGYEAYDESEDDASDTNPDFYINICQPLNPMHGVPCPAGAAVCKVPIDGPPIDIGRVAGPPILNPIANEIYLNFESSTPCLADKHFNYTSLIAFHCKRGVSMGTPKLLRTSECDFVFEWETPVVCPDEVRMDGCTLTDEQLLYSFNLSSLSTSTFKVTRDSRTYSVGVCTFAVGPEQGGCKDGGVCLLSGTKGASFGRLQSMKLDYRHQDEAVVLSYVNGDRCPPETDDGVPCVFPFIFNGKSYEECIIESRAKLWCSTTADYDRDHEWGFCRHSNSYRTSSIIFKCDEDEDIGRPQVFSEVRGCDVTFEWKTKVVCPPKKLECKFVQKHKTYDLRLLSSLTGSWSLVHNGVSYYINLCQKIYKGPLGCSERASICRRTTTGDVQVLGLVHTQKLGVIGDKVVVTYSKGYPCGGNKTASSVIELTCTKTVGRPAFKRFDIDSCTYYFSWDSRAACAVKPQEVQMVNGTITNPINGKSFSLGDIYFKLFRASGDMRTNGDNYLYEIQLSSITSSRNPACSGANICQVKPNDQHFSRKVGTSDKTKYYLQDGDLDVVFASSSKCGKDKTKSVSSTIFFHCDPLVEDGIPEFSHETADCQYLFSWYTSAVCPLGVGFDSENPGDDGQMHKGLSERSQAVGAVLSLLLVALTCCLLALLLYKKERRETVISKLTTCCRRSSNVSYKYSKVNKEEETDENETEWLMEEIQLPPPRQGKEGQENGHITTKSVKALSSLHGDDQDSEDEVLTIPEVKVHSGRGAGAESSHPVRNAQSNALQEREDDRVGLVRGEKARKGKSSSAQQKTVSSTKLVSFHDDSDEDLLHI

Molecular target: IGFIIR, cell surface of MCF-7 (UniProt P11717)
Experiment: flow cytometry
Settings: intact MCF-7 cells; Dulbecco's PBS with CaCl2 and MgCl2, 4.5 g/L glucose, 5 mM MgCl2, 0.1 mg/mL yeast tRNA, 1 mg/mL BSA; on ice 30 min; pH not stated; protein on the cell surface; folded or branched DNA

GGGCGCGTAGATGACGAGCAGTCCTAACATCGTTTAGGAC [IGFIIR aptamer]
binding result: binds

For at least one entry, the source does not settle the construct or the ends of the probe. At least one result comes from cells or an extract, where the contact may be indirect.
